Data: paper PMC3335779
These are yes or no findings as the source states them, for the method shown. In cells and extracts the contact can be indirect. Some entries that bind do so weakly or less than the wild type.

Protein sequences, listed by entry. Tags and fused reporters are not part of them.
UniProt P63015: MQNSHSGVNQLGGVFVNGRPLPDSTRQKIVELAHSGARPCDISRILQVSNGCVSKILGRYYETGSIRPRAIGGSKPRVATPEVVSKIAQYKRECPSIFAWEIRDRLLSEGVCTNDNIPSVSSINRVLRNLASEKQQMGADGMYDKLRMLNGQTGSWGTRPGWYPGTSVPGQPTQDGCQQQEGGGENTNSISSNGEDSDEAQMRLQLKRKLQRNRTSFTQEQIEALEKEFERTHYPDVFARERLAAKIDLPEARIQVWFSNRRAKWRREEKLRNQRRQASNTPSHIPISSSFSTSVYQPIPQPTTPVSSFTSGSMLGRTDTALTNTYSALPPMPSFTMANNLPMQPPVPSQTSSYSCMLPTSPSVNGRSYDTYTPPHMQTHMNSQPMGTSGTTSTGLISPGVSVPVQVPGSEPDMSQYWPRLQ

Target: paired box 6 (Pax6) (mouse (endogenous in murine eyes)) (UniProt P63015)
Test: co-IP; mouse eye lysate in IP buffer (0.1% SDS, 0.5% sodium deoxycholate, protease inhibitors); antibody (anti-Pax6, anti-TGF-β or anti-SPARC) on protein-G resin, 60 min at 4 °C with lysate; immunoblot with ECL detection; negative control: protein-G slurry without primary antibody

- binding: binds
B1: secreted protein acidic and rich in cysteine (SPARC) (protein, UniProt P07214 18-302)
chain: APQQTEVAEEIVEEETVVEETGVPVGANPVQVEMGEFEDGAEETVEEVVADNPCQNHHCKHGKVCELDESNTPMCVCQDPTSCPAPIGEFEKVCSNDNKTFDSSCHFFATKCTLEGTKKGHKLHLDYIGPCKYIAPCLDSELTEFPLRMRDWLKNVLVTLYERDEGNNLLTEKQKLRVKKIHENEKRLEAGDHPVELLARDFEKNYNMYIFPVHWQFGQLDQHPIDGYLSHTELAPLRAPLIPMEHCTTRFFETCDLDNDKYIALEEWAGCFGIKEQDINKDLVI
